The text below walks through data of paper PMC5855981.

What all share (test): fluorescence plate assay
What all share (details): 20 mM HEPES pH 7.5, 150 mM NaCl, 6 mM KCl, 2 mM MgCl2, plate assay: 10 nM aptamer (300 nM in FBS assays), 1 h, room temperature, commercial protein, label: 5'-Alexa 488

In data set [1] the target is bovine serum albumin (BSA) (bovine) (UniProt P02769).
For a further data set, the system named is chymotrypsin (CHY).
Another data set concerns the target lysozyme (LYS) (UniProt P00698).
In data set [2] the target is porcine pancreas elastase (PPE) (porcine) (UniProt P00772).
The next data set relates to thrombin (THR).
Setting [3] is: 150 mM NaCl, did not bind strongly, fully 2'-OMe, synthetic backbone, letters put together from the description.
[4] abbreviates: 500 mM NaCl, 66 ug/mL yeast tRNA, fully 2'-OMe, synthetic backbone, letters put together from the description.
Where [5] appears, read: 150 mM NaCl, did not bind strongly, single-stranded DNA.

No signal at the amounts used counts as a negative. At least one verdict rests on a figure or table, not on a statement of the authors. For at least one entry, the source does not settle the construct or the ends of the probe. The comparison behind a weaker result is the experiment's own reference, which may not be listed here.

As to “ATACGACTCACTATTAGGGCCCTGTTCGCTATCCCCCATCCCCCGATTGCTGCTAGACTACTGACTAC [2mHNE-5]”, the binding result in data set [1] (setting [3]) is given as “binds more weakly”; in data set [1] (setting [4]), “no binding”; in the data set with chymotrypsin (CHY) (setting [3]), “binds more weakly”; with chymotrypsin (CHY) (setting [4]), “no binding”; with lysozyme (LYS) (150 mM NaCl, some affinity, fully 2'-OMe, synthetic backbone, letters put together from the description), “binds more weakly”; in the data set with lysozyme (LYS) (setting [4]), “no binding”. In addition, the binding result was “binds more weakly” in data set [2] (setting [3]), “no binding” in data set [2] (setting [4]), “binds more weakly” in the data set with thrombin (THR) (setting [3]) and “no binding” in the data set with thrombin (THR) (setting [4]).

In the case of “TAGCGATACTGCGTGGGTTGGGGCGGGTAGGGCCAGCAGTCTCGT [DNA-I]”, the binding result was “binds more weakly” in data set [1] (setting [5]); “binds more weakly” in the data set with chymotrypsin (CHY) (setting [5]); “binds more weakly” with lysozyme (LYS) (150 mM NaCl, some affinity, single-stranded DNA); “binds more weakly” in data set [2] (setting [5]); “binds more weakly” in the data set on thrombin (THR) (setting [5]).
